PubChem BioAssay AID1259308 | NCATS, 2017
Here is an unselected part of about 59,000 reagents. In the full data, about 1,510 (2.6%) were called active. 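Calls use total luciferase alone and ignore viability, so some active siRNAs may act by altering cell number.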 Reagents against one gene are numbered here. Further read-outs or replicates are left out here. Reagent sequences are not shown.

- Screen: 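Knock-downs that increase output of a recombinant reporter protein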 (primary screen)
- Cells: human HEK293 embryonic kidney cells stably expressing firefly luciferase (HEK-CMV-Luc2-Hygro)
- Knock-down reagent: single siRNA against human genes, 0.8 pmol siRNA per well
- Time to read-out: 72 h
- Read-out: 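Luciferase light (ONE-Glo) measured on one replicate plate set and viability (CellTiter-Glo) on the other, scaled to a negative control siRNA, with robust z-scores and luciferase per cell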
- Scale: total luciferase, z-score and total luciferase, % of control: higher = more reporter protein produced
- Rule for the call: 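An siRNA counts as active if its total luciferase robust z-score exceeds 3; genes with two or more such siRNAs out of three were retested with fresh siRNAs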
- Meaning of the calls: active = raised luciferase; inactive = no rise

Against CEBPB (CCAAT enhancer binding protein beta) #1 the deposit lists total luciferase, z-score 1.8; total luciferase, % of control 118; inactive. CEBPB (CCAAT enhancer binding protein beta) #2 scored total luciferase, z-score 0.107; total luciferase, % of control 84; inactive. After knock-down of CEBPB (CCAAT enhancer binding protein beta) #3, the screen gave total luciferase, z-score 1.06; total luciferase, % of control 103; inactive. For CMTM8 (CKLF like MARVEL transmembrane domain containing 8) #1, the entry reads total luciferase, z-score 0.499; total luciferase, % of control 91.8; inactive. Depletion of CMTM8 (CKLF like MARVEL transmembrane domain containing 8) #2 came out at: total luciferase, z-score 1.11; total luciferase, % of control 104; inactive. After knock-down of CMTM8 (CKLF like MARVEL transmembrane domain containing 8) #3 the results were total luciferase, z-score 1.82; total luciferase, % of control 118; inactive.

CCDC197 (coiled-coil domain containing 197) #1 showed total luciferase, z-score 1.59; total luciferase, % of control 113; inactive. CCDC197 (coiled-coil domain containing 197) #2 scored total luciferase, z-score -0.301; total luciferase, % of control 75.9; inactive. After knock-down of CCDC197 (coiled-coil domain containing 197) #3 the results were total luciferase, z-score -0.518; total luciferase, % of control 71.6; inactive. Silencing of ACSL6 (acyl-CoA synthetase long chain family member 6) #1 resulted in: total luciferase, z-score 1.42; total luciferase, % of control 110; inactive. ACSL6 (acyl-CoA synthetase long chain family member 6) #2 gave total luciferase, z-score -0.702; total luciferase, % of control 67.9; inactive. ACSL6 (acyl-CoA synthetase long chain family member 6) #3 showed total luciferase, z-score 0.326; total luciferase, % of control 88.4; inactive.

An excerpt from above, showing only “total luciferase, z-score”.
CMTM8 (CKLF like MARVEL transmembrane domain containing 8) #3 = 1.82
CCDC197 (coiled-coil domain containing 197) #1 = 1.59
CCDC197 (coiled-coil domain containing 197) #2 = -0.301

Next reagents:
After knock-down of ZC3H12D (zinc finger CCCH-type containing 12D) #1, the screen gave total luciferase, z-score 0.6; total luciferase, % of control 93.8; inactive. ZC3H12D (zinc finger CCCH-type containing 12D) #2 gave total luciferase, z-score 0.397; total luciferase, % of control 89.8; inactive. After knock-down of ZC3H12D (zinc finger CCCH-type containing 12D) #3 the results were total luciferase, z-score 0.0438; total luciferase, % of control 82.8; inactive. After knock-down of THADA (THADA armadillo repeat containing) #1 the results were total luciferase, z-score 0.218; total luciferase, % of control 86.2; inactive. Depletion of THADA (THADA armadillo repeat containing) #2 resulted in: total luciferase, z-score -0.361; total luciferase, % of control 74.7; inactive. Knock-down of THADA (THADA armadillo repeat containing) #3 resulted in: total luciferase, z-score -0.742; total luciferase, % of control 67.1; inactive.

Knock-down of NTHL1 (nth like DNA glycosylase 1) #1 came out at: total luciferase, z-score 0.0727; total luciferase, % of control 83.3; inactive. For NTHL1 (nth like DNA glycosylase 1) #2, the values are total luciferase, z-score 2.51; total luciferase, % of control 132; inactive. NTHL1 (nth like DNA glycosylase 1) #3 scored total luciferase, z-score 0.411; total luciferase, % of control 90.1; inactive. MUC19 (mucin 19, oligomeric (gene/pseudogene)) #1 showed total luciferase, z-score 0.396; total luciferase, % of control 89.8; inactive. MUC19 (mucin 19, oligomeric (gene/pseudogene)) #2 gave total luciferase, z-score 0.884; total luciferase, % of control 99.5; inactive. Depletion of MUC19 (mucin 19, oligomeric (gene/pseudogene)) #3 resulted in: total luciferase, z-score 0.171; total luciferase, % of control 85.3; inactive.

Silencing of MUC19 (mucin 19, oligomeric (gene/pseudogene)) #4 resulted in: total luciferase, z-score 0.0552; total luciferase, % of control 83; inactive. After knock-down of MUC19 (mucin 19, oligomeric (gene/pseudogene)) #5, the screen gave total luciferase, z-score -0.198; total luciferase, % of control 78; inactive. With knock-down of MUC19 (mucin 19, oligomeric (gene/pseudogene)) #6 the results were total luciferase, z-score 0.509; total luciferase, % of control 92; inactive. SLC2A6 #1 showed total luciferase, z-score 2.6; total luciferase, % of control 134; inactive. For SLC2A6 #2, the entry reads total luciferase, z-score 0.998; total luciferase, % of control 102; inactive. For SLC2A6 #3, the entry reads total luciferase, z-score -0.15; total luciferase, % of control 78.9; inactive.

GOSR1 (golgi SNAP receptor complex member 1) #1 scored total luciferase, z-score 1.21; total luciferase, % of control 106; inactive. Against GOSR1 (golgi SNAP receptor complex member 1) #2, the entry reads total luciferase, z-score -2.28; total luciferase, % of control 36.6; inactive. For GOSR1 (golgi SNAP receptor complex member 1) #3, the entry reads total luciferase, z-score 0.451; total luciferase, % of control 90.9; inactive.
